From patent publication US11656182B2, “Method, composition, and chip for detecting analyte in blood sample” (TERUMO KABUSHIKI KAISHA, priority 2016, dated 2023)

Test system: blood sample (hematocrit value: 40)
Assay: Spectrum analysis of detection chip after blood sample is deposited
Conditions: 10 to 15 seconds, corrected to clearance 35 μm

SMILES	Transmittance 545 nm, 575 nm (Hb absorption peak wavelength)
O=S(=O)(O)c1cccc(S(=O)(=O)O)c1 [DSB, 1,3-benzene disulfonate]	⊙ (the transmittance of both the peak minimal values observed at 545 nm and 575 nm is 15% or more)
OC[C@H]1O[C@H](O[C@]2(CCl)O[C@H](CCl)[C@@H](O)[C@@H]2O)[C@H](O)[C@@H](O)[C@H]1Cl [Sucralose, sucralose]	⊙ (the transmittance of both the peak minimal values observed at 545 nm and 575 nm is 15% or more)
OC[C@H]1O[C@H](O[C@H]2O[C@H](CO)[C@@H](O)[C@H](O)[C@H]2O)[C@H](O)[C@@H](O)[C@@H]1O [Trehalose, trehalose]	⊙ (the transmittance of both the peak minimal values observed at 545 nm and 575 nm is 15% or more)
O=C([O-])C1=NN(c2ccc(S(=O)(=O)[O-])cc2)C(=O)C1N=Nc1ccc(S(=O)(=O)[O-])cc1.[Na+].[Na+].[Na+] (centres unmarked) [Acid Yellow 23]	◯ (the transmittance of any one of the peak minimal values observed at 545 nm and 575 nm is 15% or more)
O=S(=O)(O)c1cc(S(=O)(=O)O)c2c(/N=N/c3ccccc3)c(O)ccc2c1 [Orange G]	◯ (the transmittance of any one of the peak minimal values observed at 545 nm and 575 nm is 15% or more)
